The target of this experiment is Influenza A virus non-structural protein 1 (NS1), strain A/Puerto Rico/8/1934(H1N1) (Influenza A virus A/Puerto Rico/8/1934(H1N1)) (UniProt P03496). Nature of the experiment: affinity purification with mass spectrometry.

By UniProt entry, the sequences of proteins in these tests, tags left out.
UniProt P03496: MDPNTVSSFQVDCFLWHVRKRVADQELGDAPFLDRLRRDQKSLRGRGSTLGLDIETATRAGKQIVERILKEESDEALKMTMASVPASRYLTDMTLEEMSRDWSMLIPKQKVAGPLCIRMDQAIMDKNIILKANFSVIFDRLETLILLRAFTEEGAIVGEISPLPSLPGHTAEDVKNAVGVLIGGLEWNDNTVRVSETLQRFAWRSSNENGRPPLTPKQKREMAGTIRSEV

These are yes or no findings as the source states them, for the method shown. Binding seen in cells or lysates may run through a third protein. Here binding means that the protein was enriched with, or labelled near, the bait; the list need not be complete.

B1: UPF0568 protein C14orf166 (protein, UniProt Q9Y224 1-244)
chain: MFRRKLTALDYHNPAGFNCKDETEFRNFIVWLEDQKIRHYKIEDRGNLRNIHSSDWPKFFEKYLRDVNCPFKIQDRQEAIDWLLGLAVRLEYGDNAEKYKDLVPDNSKTADNATKNAEPLINLDVNNPDFKAGVMALANLLQIQRHDDYLVMLKAIRILVQERLTQDAVAKANQTKEGLPVALDKHILGFDTGDAVLNEAAQILRLLHIEELRELQTKINEAIVAVQAIIADPKTDHRLGKVGR
With B1, the binding result is “binds”.

B2: Myb-binding protein 1A (protein, UniProt Q9BQG0 1-1328)
chain: MESRDPAQPMSPGEATQSGARPADRYGLLKHSREFLDFFWDIAKPEQETRLAATEKLLEYLRGRPKGSEMKYALKRLITGLGVGRETARPCYSLALAQLLQSFEDLPLCSILQQIQEKYDLHQVKKAMLRPALFANLFGVLALFQSGRLVKDQEALMKSVKLLQALAQYQNHLQEQPRKALVDILSEVSKATLQEILPEVLKADLNIILSSPEQLELFLLAQQKVPSKLKKLVGSVNLFSDENVPRLVNVLKMAASSVKKDRKLPAIALDLLRLALKEDKFPRFWKEVVEQGLLKMQFWPASYLCFRLLGAALPLLTKEQLHLVMQGDVIRHYGEHVCTAKLPKQFKFAPEMDDYVGTFLEGCQDDPERQLAVLVAFSSVTNQGLPVTPTFWRVVRFLSPPALQGYVAWLRAMFLQPDLDSLVDFSTNNQKKAQDSSLHMPERAVFRLRKWIIFRLVSIVDSLHLEMEEALTEQVARFCLFHSFFVTKKPTSQIPETKHPFSFPLENQAREAVSSAFFSLLQTLSTQFKQAPGQTQGGQPWTYHLVQFADLLLNHSHNVTTVTPFTAQQRQAWDRMLQTLKELEAHSAEARAAAFQHLLLLVGIHLLKSPAESCDLLGDIQTCIRKSLGEKPRRSRTKTIDPQEPPWVEVLVEILLALLAQPSHLMRQVARSVFGHICSHLTPRALQLILDVLNPETSEDENDRVVVTDDSDERRLKGAEDKSEEGEDNRSSESEEESEGEESEEEERDGDVDQGFREQLMTVLQAGKALGGEDSENEEELGDEAMMALDQSLASLFAEQKLRIQARRDEKNKLQKEKALRRDFQIRVLDLVEVLVTKQPENALVLELLEPLLSIIRRSLRSSSSKQEQDLLHKTARIFTHHLCRARRYCHDLGERAGALHAQVERLVQQAGRQPDSPTALYHFNASLYLLRVLKGNTAEGCVHETQEKQKAGTDPSHMPTGPQAASCLDLNLVTRVYSTALSSFLTKRNSPLTVPMFLSLFSRHPVLCQSLLPILVQHITGPVRPRHQACLLLQKTLSMREVRSCFEDPEWKQLMGQVLAKVTENLRVLGEAQTKAQHQQALSSLELLNVLFRTCKHEKLTLDLTVLLGVLQGQQQSLQQGAHSTGSSRLHDLYWQAMKTLGVQRPKLEKKDAKEIPSATQSPISKKRKKKGFLPETKKRKKRKSEDGTPAEDGTPAATGGSQPPSMGRKKRNRTKAKVPAQANGTPTTKSPAPGAPTRSPSTPAKSPKLQKKNQKPSQVNGAPGSPTEPAGQKQHQKALPKKGVLGKSPLSALARKKARLSLVIRSPSLLQSGAKKKAQVRKAGKP
For the molecule B2, the binding result is reported as “binds”.

B3: Nucleolar protein 11 (protein, UniProt Q9H8H0 1-719)
chain: MAALEEEFTLSSVVLSAGPEGLLGVEQSDKTDQFLVTDSGRTVILYKVSDQKPLGSWSVKQGQIITCPAVCNFQTGEYVVVHDNKVLRIWNNEDVNLDKVFKATLSAEVYRILSVQGTEPLVLFKEGAVRGLEALLADPQQKIETVISDEEVIKWTKFFVVFRHPVLIFITEKHGNYFAYVQMFNSRILTKYTLLLGQDENSVIKSFTASVDRKFISLMSLSSDGCIYETLIPIRPADPEKNQSLVKSLLLKAVVSGNARNGVALTALDQDHVAVLGSPLAASKECLSVWNIKFQTLQTSKELPQGTSGQLWYYGEHLFMLHGKSLTVIPYKCEVSSLAGALGKLKHSQDPGTHVVSHFVNWETPQGCGLGFQNSEQSRRILRRRKIEVSLQPEVPPSKQLLSTIMKDSEKHIEVEVRKFLALKQTPDFHTVIGDTVTGLLERCKAEPSFYPRNCLMQLIQTHVLSYSLCPDLMEIALKKKDVQLLQLCLQQFPDIPESVTCACLKIFLSIGDDSLQETDVNMESVFDYSINSVHDEKMEEQTEILQNGFNPEEDKCNNCDQELNKKPQDETKESTSCPVVQKRAALLNAILHSAYSETFLLPHLKDIPAQHITLFLKYLYFLYLKCSENATMTLPGIHPPTLNQIMDWICLLLDANFTVVVMMPEAKRLLINLYKLVKSQISVYSELNKIEVSFRELQKLNQEKNNRGLYSIEVLELF
As to B3, the binding result was “binds”.

B4: NF-kappa-B-repressing factor (protein, UniProt O15226 1-690)
chain: MEKILQMAEGIDIGEMPSYDLVLSKPSKGQKRHLSTCDGQNPPKKQAGSKFHARPRFEPVHFVASSSKDERQEDPYGPQTKEVNEQTHFASMPRDIYQDYTQDSFSIQDGNSQYCDSSGFILTKDQPVTANMYFDSGNPAPSTTSQQANSQSTPEPSPSQTFPESVVAEKQYFIEKLTATIWKNLSNPEMTSGSDKINYTYMLTRCIQACKTNPEYIYAPLKEIPPADIPKNKKLLTDGYACEVRCQNIYLTTGYAGSKNGSRDRATELAVKLLQKRIEVRVVRRKFKHTFGEDLVVCQIGMSSYEFPPALKPPEDLVVLGKDASGQPIFNASAKHWTNFVITENANDAIGILNNSASFNKMSIEYKYEMMPNRTWRCRVFLQDHCLAEGYGTKKTSKHAAADEALKILQKTQPTYPSVKSSQCHTGSSPRGSGKKKDIKDLVVYENSSNPVCTLNDTAQFNRMTVEYVYERMTGLRWKCKVILESEVIAEAVGVKKTVKYEAAGEAVKTLKKTQPTVINNLKKGAVEDVISRNEIQGRSAEEAYKQQIKEDNIGNQLLRKMGWTGGGLGKSGEGIREPISVKEQHKREGLGLDVERVNKIAKRDIEQIIRNYARSESHTDLTFSRELTNDERKQIHQIAQKYGLKSKSHGVGHDRYLVVGRKRRKEDLLDQLKQEGQVGHYELVMPQAN
Regarding B4, the binding result is listed as “binds”.

B5: U3 small nucleolar ribonucleoprotein protein MPP10 (protein, UniProt O00566 1-681)
chain: MAPQVWRRRTLERCLTEVGKATGRPECFLTIQEGLASKFTSLTKVLYDFNKILENGRIHGSPLQKLVIENFDDEQIWQQLELQNEPILQYFQNAVSETINDEDISLLPESEEQEREEDGSEIEADDKEDLEDLEEEEVSDMGNDDPEMGERAENSSKSDLRKSPVFSDEDSDLDFDISKLEQQSKVQNKGQGKPREKSIVDDKFFKLSEMEAYLENIEKEEERKDDNDEEEEDIDFFEDIDSDEDEGGLFGSKKLKSGKSSRNLKYKDFFDPVESDEDITNVHDDELDSNKEDDEIAEEEAEELSISETDEDDDLQENEDNKQHKESLKRVTFALPDDAETEDTGVLNVKKNSDEVKSSFEKRQEKMNEKIASLEKELLEKKPWQLQGEVTAQKRPENSLLEETLHFDHAVRMAPVITEETTLQLEDIIKQRIRDQAWDDVVRKEKPKEDAYEYKKRLTLDHEKSKLSLAEIYEQEYIKLNQQKTAEEENPEHVEIQKMMDSLFLKLDALSNFHFIPKPPVPEIKVVSNLPAITMEEVAPVSVSDAALLAPEEIKEKNKAGDIKTAAEKTATDKKRERRKKKYQKRMKIKEKEKRRKLLEKSSVDQAGKYSKTVASEKLKQLTKTGKASFIKDEGKDKALKSSQAFFSKLQDQVKMQINDAKKTEKKKKKRQDISVHKLKL
Take B5: the binding result is “binds”.

B6: 60S ribosome subunit biogenesis protein NIP7 homolog (protein, UniProt Q9Y221 1-180)
chain: MRPLTEEETRVMFEKIAKYIGENLQLLVDRPDGTYCFRLHNDRVYYVSEKIMKLAANISGDKLVSLGTCFGKFTKTHKFRLHVTALDYLAPYAKYKVWIKPGAEQSFLYGNHVLKSGLGRITENTSQYQGVVVYSMADIPLGFGVAAKSTQDCRKVDPMAIVVFHQADIGEYVRHEETLT
In the case of B6, the binding result is “binds”.

Source of the values: publication PMC6316800.
